Measured values as given in patent publication US20260232753A1, “COMPOSITION FOR TREATING MACULAR DEGENERATION COMPRISING NOVEL PEPTIDE” (EYEBIOKOREA, INC., priority 2021, published 2026).
Part of at least one peptide drawing is inferred or uncertain, most often the ends. Where a SMILES comes first, the peptide text is derived from it. [ ]: non-standard residue; d: D form. Hyp = O=C(O)[C@@H]1C[C@@H](O)CN1; Tle = CC(C)(C)[C@H](N)C(=O)O; Aib = CC(C)(N)C(=O)O

Key:
[1] = Stability of the peptide: content analysis by HPLC in aqueous solution under harsh conditions; type: physicochemical; conditions: for Content after 7 days / Decrease rate: 40° C., 75% humidity; for Decrease rate: after 7 days; for Initial content: HPLC
Description: In order to evaluate the stability of the peptide of the present invention, an experiment was performed as follows.
The stability of the peptide was confirmed through content analysis in an aqueous solution at 40° C., 75% humidity, and harsh conditions, and was analyzed using HPLC under the following conditions. • Analysis column: C18 (4.6 Y 250 mm, 5 μm, YMC Hydrosphere) • Analysis wavelength: ultraviolet absorption spectrophotometer (210 nm) • Injection volume/Flow rate: 10 μL/0.8 mL/min • Column temperature: 45° C. • Mobile phase: 0.1 M phosphate buffer methanol mixture (83:17)

[2] = test system: choroidal neovascularization (CNV); assay: Inhibition of choroidal neovascularization: fluorescence value (CTF) at the CNV site by FFA, laser-induced CNV model, intravitreal injection; type: in vivo, C57BL/6 mice; conditions: ten days after administration; for CTF (corrected total fluorescence) value: laser-induced CNV, 1 μL intravitreal, peptide 10 mg/mL or aflibercept 20 mg/mL, lower CTF = less CNV
Source text: The CNV animal model used in the present invention is a mouse model in which lesions are induced by irradiating a laser to the choroid of C57BL/6 mice using a laser slit system. The laser-induced CNV model, first described in 1979, uses photocoagulation to disturb Bruch's membrane to induce the growth of choroidal neovascularization into the retina area, and it is similar in development to neovascular disease in the human retina, that is, wet macular degeneration (wet AMD), in that neovascularity arises from the choroid. In addition, the laser-induced CNV model was successful in predicting the clinical efficacy of anti-vascular endothelial growth factor (VEGF) treatment for neovascular AMD, and is an animal model used in the development stage of existing therapeutic agents (Gong Y, Li J, Sun Y, Fu Z, Liu C H, Evans L, et al. (2015) Optimization of an Image-Guided Laser-Induced Choroidal Neovascularization Model in Mice. PLOS ONE 10 (7)).
In order to evaluate the efficacy of the peptide of the present invention to inhibit the choroidal neovascularization (CNV), an experiment was performed as follows.
The eyes of 7-8 week old C57BL/6 mice were instilled with a mydriatic agent to dilate the pupils, and the mice were anesthetized by intraperitoneal injection of ketamine (50 mg/kg) and rompun (23.32 mg/kg). A slit-lamp laser injection system was used to irradiate the laser to the choroid of each eye of the mouse four times in the 12 o'clock, 3 o'clock, 6 o'clock, and 9 o'clock directions. At this time, the laser irradiation conditions were 532 nm, 80 msec, and 240 mW. Immediately after laser irradiation, 1 μL of each peptide at a concentration of 10 mg/mL or aflibercept at a concentration of 20 mg/mL, which was dissolved in PBS, was injected into the vitreous body using a syringe. Ten days after drug administration, the mice were anesthetized, and 2% fluorescein was administered to the abdominal cavity to stain blood vessels. The retina was photographed 2 to 3 minutes after fluorescein administration. The size and fluorescence value of CNV lesions induced by laser were measured using the ImageJ program, and in order to reduce the differences between subjects, the CTF (corrected total fluorescence) was calculated by removing the background, and the values of each group were compared. The results of all tests are expressed as mean±standard deviation, and significance was verified using one-way ANOVA and Kruskal-wallis test.

[3] = test system: choroidal neovascularization (CNV); assay: Inhibition of choroidal neovascularization: optical coherence tomography, size of CNV lesion, intravitreal injection; type: in vivo, C57BL/6 mice; conditions: laser-induced CNV; 1 μL intravitreal, peptide 10 mg/mL or aflibercept 20 mg/mL; ten days after administration; OCT
Source text: (§1) The CNV animal model used in the present invention is a mouse model in which lesions are induced by irradiating a laser to the choroid of C57BL/6 mice using a laser slit system. The laser-induced CNV model, first described in 1979, uses photocoagulation to disturb Bruch's membrane to induce the growth of choroidal neovascularization into the retina area, and it is similar in development to neovascular disease in the human retina, that is, wet macular degeneration (wet AMD), in that neovascularity arises from the choroid. […]
The eyes of 7-8 week old C57BL/6 mice were instilled with a mydriatic agent to dilate the pupils, and the mice were anesthetized by intraperitoneal injection of ketamine (50 mg/kg) and rompun (23.32 mg/kg). […] Ten days after drug administration, the mice were anesthetized, and the CNV lesions induced by laser were calculated and expressed as μm^2 using the ImageJ program by transmitting an OCT beam for each burn. The results of all tests are expressed as mean±standard deviation, and significance was verified using one-way ANOVA and Kruskal-wallis test.

[4] = test system: choroidal neovascularization (CNV); assay: Inhibition of choroidal neovascularization: electroretinography, b-wave amplitude as indicator of retinal function; type: in vivo, C57BL/6 mice; conditions: laser-induced CNV; 1 μL intravitreal, peptide 10 mg/mL or aflibercept 20 mg/mL; single white light 0.9 cd·sec/m^2
Source text: as §1
The eyes of 7-8 week old C57BL/6 mice were instilled with a mydriatic agent to dilate the pupils, and the mice were anesthetized by intraperitoneal injection of ketamine (50 mg/kg) and rompun (23.32 mg/kg). […] The response values were obtained by stimulating the retina with a single white light of 0.9 cd·sec/m^2 flash intensity, and the amplitude, which is determined from the trough of the a-wave to the peak of the b-wave, was measured and evaluated as an indicator of retinal function. The results of all tests are expressed as mean #standard deviation, and significance was verified using one-way ANOVA and Kruskal-wallis test.

Structure (SMILES)	Content after 7 days [1] [%]	Decrease rate [1] [%]	Initial content [1] [%]	CTF (corrected total fluorescence) value [2]	Size of lesion [3]	CNV inhibitory efficacy from fluorescence value of the CNV site (in words) ([2]; intravitreal)	b-wave amplitude [4] [μV]
CC(C)C[C@H](NC(=O)[C@@H](NC(=O)[C@H](CCC(=O)O)NC(=O)[C@H](CCC(N)=O)NC(=O)CNC(=O)[C@@H]1C[C@@H](O)CN1)C(C)(C)C)C(=O)N[C@@H](C)C(=O)O [Example 44, Hyp-Gly-Gln-Glu-tert-Leu-Leu-Ala] (H-[Hyp]GQE[Tle]LA-OH; N-terminus and C-terminus assumed)	97.785	0.605	98.390	+ (+: 300,000 to 800,000)	–	–	–
CC(C)C[C@H](NC(=O)CNC(=O)[C@H](CCC(=O)O)NC(=O)[C@H](CCC(N)=O)NC(=O)CNC(=O)[C@@H]1C[C@@H](O)CN1)C(=O)N[C@@H](C)C(=O)O [Example 40, Hyp-Gly-Gln-Glu-Gly-Leu-Ala] (H-[Hyp]GQEGLA-OH; N-terminus and C-terminus assumed)	95.685	0.438	96.123	+ (+: 300,000 to 800,000)	–	–	–
CC(C)C[C@H](NC(=O)C(C)(C)NC(=O)[C@H](CCC(=O)O)NC(=O)[C@H](CCC(N)=O)NC(=O)CNC(=O)[C@@H]1C[C@@H](O)CN1)C(=O)N[C@@H](C)C(=O)O [Example 43, Hyp-Gly-Gln-Glu-Aib-Leu-Ala] (H-[Hyp]GQE[Aib]LA-OH; N-terminus and C-terminus assumed)	96.562	0.355	96.917	++ (++: 200,000 to 300,000)	5,393 μm^2	very excellent inhibitory efficacy	371
